The values that follow come from PubChem BioAssay AID328 (DTP/NCI, 2004).

The assay has as its system BDF1 mice, P388 leukemia ip, median survival T/C. As to the kind of experiment: NCI In Vivo Anticancer Drug Screen. Data for tumor model P388 Leukemia (intraperitoneal) in B6D2F1 (BDF1) mice. The conditions noted are these: T/C endpoint: median survival time, higher T/C = longer survival. Put shortly:
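Mice carrying the transplantable tumour receive compound or vehicle. Survival is followed in each arm, and the treated measure is divided by the vehicle measure.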

Where [1] appears, read: dose: 50.0 mg/kg/injection, schedule: Q04DX003 (ip), vehicle: saline.
Setting [2] is: dose: 200.0 mg/kg/injection, schedule: Q01DX009 (ip), vehicle: saline.
Setting [3] is: dose: 200.0 mg/kg/injection, schedule: Q04DX003 (ip), vehicle: saline.
The mark [4] stands for this setting: dose: 200.0 mg/kg/injection, schedule: Q01DX009 (ip), vehicle: saline with Tween-80.

The list shows only some results of the screen, not a fair sample: it is rich in T/C values a quarter to a half above the control, in often repeated tests (any T/C) and in doses without a T/C. Further doses and runs are listed elsewhere. T/C: endpoint of the treated group in % of that of the vehicle group. Some doses have a count of surviving animals in place of a T/C: the source holds a T/C of zero for them, seemingly a mark for toxic or unscored doses. Some doses without a T/C left all or most animals alive at the check, yet need not have been tolerated: survival well below the control is almost never listed, so the zero probably covers shortened survival too. Counts of survivors are from the toxicity check (mostly the fifth day) where no day follows; animals may have died later. Schedule codes are those of the source, taken here to give the interval after Q, in days (D) or hours (H), and the number of doses after X. Some doses were run more than once; the results are listed from low to high. For survival time, the PubChem record calls one and a half times the control and up active, and a quarter to a half above the control has no call in these data; cut-offs in other NCI protocols can differ. Some T/C values carry the count of animals alive at the toxicity check (mostly the fifth day); without a count, all were alive then.

On to `C/C(Cc1ccccc1)=N\O`, for which the survivor count (dose: 400.0 mg/kg/injection, schedule: Q01DX009 (ip), vehicle: saline with Tween-80) was 3 of 6.

As for `COc1cc2cc[n+](C)cc2cc1OC`, the T/C under setting [1] is 127 % of control. The survivor count is listed as 3 of 6 under setting [2] and 5 of 6 under setting [3].

As for `c1ccc(OCCC[P+](c2ccccc2)(c2ccccc2)c2ccccc2)cc1`, the T/C by setting is: (dose: 6.25 mg/kg/injection, schedule: Q01DX010 (ip), vehicle: carboxymethylcellulose (CMC)) 130 % of control [5 of 6 alive]; (dose: 6.25 mg/kg/injection, schedule: Q01DX010 (ip), vehicle: steroid suspending solution) 140 % of control; (dose: 12.5 mg/kg/injection, schedule: Q01DX010 (ip), vehicle: steroid suspending solution) 130 % of control. Besides, the survivor count is on record as 2 of 6 (dose: 25.0 mg/kg/injection, schedule: Q01DX010 (ip), vehicle: carboxymethylcellulose (CMC)); 3 of 6 (dose: 25.0 mg/kg/injection, schedule: Q01DX010 (ip), vehicle: steroid suspending solution); 0 of 6 (dose: 50.0 mg/kg/injection, schedule: Q01DX010 (ip), vehicle: carboxymethylcellulose (CMC)); 1 of 6 (dose: 50.0 mg/kg/injection, schedule: Q01DX010 (ip), vehicle: steroid suspending solution).

In the case of `CCC1CN1CC1CO1` (configuration not stated), the T/C reads like this: (dose: 19.0 mg/kg/injection, schedule: Q04DX003 (ip), vehicle: Klucel (hydroxypropylcellulose) (HPC)) 133 % of control; (dose: 45.0 mg/kg/injection, schedule: Q04DX003 (ip), vehicle: Klucel (hydroxypropylcellulose) (HPC)) 141 % of control; (dose: 65.0 mg/kg/injection, schedule: Q04DX003 (ip), vehicle: Klucel (hydroxypropylcellulose) (HPC)) 125 % of control; (dose: 200.0 mg/kg/injection, schedule: Q04DX003 (ip), vehicle: Klucel (hydroxypropylcellulose) (HPC)) 131 % of control; (dose: 265.0 mg/kg/injection, schedule: Q01DX009 (ip), vehicle: Klucel (hydroxypropylcellulose) (HPC)) 145 % of control; (dose: 400.0 mg/kg/injection, schedule: Q01DX009 (ip), vehicle: Klucel (hydroxypropylcellulose) (HPC)) 145 % of control.

For the compound `COc1cc(C=Nc2ccc(-n3ccnc3C)cc2)ccc1N(CCCl)CCCl`, the T/C was 146 % of control (dose: 2.0 mg/kg/injection, schedule: Q01DX009 (ip), vehicle: Klucel (hydroxypropylcellulose) (HPC)) and 146 % of control (dose: 3.3 mg/kg/injection, schedule: Q01DX009 (ip), vehicle: Klucel (hydroxypropylcellulose) (HPC)).

`O=C(NNc1ccccc1)C(F)(F)F`: the survivor count is listed as 2 of 6 (dose: 75.0 mg/kg/injection, schedule: Q01DX009 (ip), vehicle: saline with Tween-80); 0 of 6 (dose: 115.0 mg/kg/injection, schedule: Q01DX009 (ip), vehicle: saline with Tween-80); 6 of 6 (dose: 150.0 mg/kg/injection, schedule: Q04DX003 (ip), vehicle: saline with Tween-80); 2 of 6 (dose: 225.0 mg/kg/injection, schedule: Q01DX001 (ip), vehicle: saline with Tween-80).

For `CCCCCC[N+]1(C)CC2C3C=CC(C3)C2C1` (configuration not stated), where the note is “dose: 115.0 mg/kg/injection, schedule: Q01DX009 (ip), vehicle: saline”, the survivor count is 0 of 6.

As to `Cc1cc(O)c2c(c1)OC1(C)CCC3C(C)(C)CCCC34COC2C14` (configuration not stated), for the setting “dose: 100.0 mg/kg/injection, schedule: Q01DX009 (ip), vehicle: other”, the survivor count is listed as 3 of 3.

In the case of `CC(=O)N(C)C(C(=O)N1CC(C)CC1C(=O)N(C)C1C(=O)NC(CC(C)C)C(=O)N2CC(C)CC2C(=O)NC(CC(C)C)C(=O)N(C)C(C(C)C)C(=O)N2CCCC2C(=O)N(C)C(CC(C)C)C(=O)NCC(=O)OC1C)C(C)C` (configuration not stated), the T/C (dose: 18.75 mg/kg/injection, schedule: Q01DX009 (ip), vehicle: Klucel (hydroxypropylcellulose) (HPC)) was 127 % of control.

On to `CC(=O)NC1CCCN(O)C(=O)/C=C(/C)CCOC(=O)C(NC(C)=O)CCCN(O)C(=O)/C=C(/C)CCOC(=O)C(NC(C)=O)CCCN(O)C(=O)/C=C(/C)CCOC1=O.[Fe]` (configuration not stated), for which the survivor count (dose: 100.0 mg/kg/injection, schedule: Q01DX009 (ip), vehicle: Klucel (hydroxypropylcellulose) (HPC)) is reported as 6 of 6.

For `CCCCN(C)N=Nc1ccc(CCC(=O)OCC)cc1`, the T/C is 136 % of control (dose: 100.0 mg/kg/injection, schedule: Q04DX003 (ip), vehicle: saline with Tween-80); 134 and 136 % of control (dose: 266.0 mg/kg/injection, schedule: Q04DX003 (ip), vehicle: saline with Tween-80); 146 % of control (dose: 400.0 mg/kg/injection, schedule: Q04DX003 (ip), vehicle: saline with Tween-80). Moreover, the survivor count (dose: 600.0 mg/kg/injection, schedule: Q04DX003 (ip), vehicle: saline with Tween-80) is given as 6 of 6.

Take `Cn1cc(C=O)c2nccnc21`: the survivor count is, setting by setting: (dose: 3.12 mg/kg/injection, schedule: Q01DX009 (ip), vehicle: saline) 6 of 6; (dose: 25.0 mg/kg/injection, schedule: Q01DX009 (ip), vehicle: saline) 6 of 6; (dose: 50.0 mg/kg/injection, schedule: Q01DX009 (ip), vehicle: saline) 6 of 6; under setting [4], 3 of 6; (dose: 300.0 mg/kg/injection, schedule: Q01DX009 (ip), vehicle: saline with Tween-80) 0 of 6.

For `O=[N+]([O-])CC(O)c1ccc2ccccc2n1` (configuration not stated), the survivor count runs as follows: under setting [2], 3 of 6; (dose: 400.0 mg/kg/injection, schedule: Q04DX003 (ip), vehicle: saline) 0 of 6.

Turning to `CCCNC(=S)NNC(=O)c1ccncc1`, the survivor count by setting is: (dose: 50.0 mg/kg/injection, schedule: Q01DX009 (ip), vehicle: saline with Tween-80) 6 of 6; under setting [4], 0 of 6.

`NS(=O)(=O)c1cc([N+](=O)[O-])ccc1Cl`: the survivor count (dose: 400.0 mg/kg/injection, schedule: Q04DX003 (ip), vehicle: Klucel (hydroxypropylcellulose) (HPC)) is recorded as 3 of 6.

On to `NNc1cccc(Cl)n1`, for which the survivor count runs as follows: (dose: 100.0 mg/kg/injection, schedule: Q01DX009 (ip), vehicle: saline with Tween-80) 4 of 6; under setting [4], 2 of 6.

Take `CC(O)Cc1c[nH]c(=O)[nH]c1=O` (configuration not stated): the survivor count (dose: 400.0 mg/kg/injection, schedule: Q01DX009 (ip), vehicle: water) is on record as 4 of 6.

With `O=c1[nH]cc(Br)c2sccc12`, the survivor count (dose: 335.0 mg/kg/injection, schedule: Q01DX009 (ip), vehicle: saline) is recorded as 4 of 6.

Consider `COc1ccc(N=NNc2ccc(OC)cc2)cc1`, for which the T/C is 129 and 145 % of control (dose: 16.5 mg/kg/injection, schedule: Q01DX009 (ip), vehicle: saline with Tween-80); 140 % of control (dose: 25.0 mg/kg/injection, schedule: Q01DX009 (ip), vehicle: saline with Tween-80).

As to `Cc1cc2nc3ccc(=[N+](C)C)cc-3sc2cc1N`, the T/C under setting [1] was 127 % of control and the T/C (dose: 100.0 mg/kg/injection, schedule: Q04DX003 (ip), vehicle: saline) is 127 % of control. Further, the survivor count is 0 of 6 and 1 of 6 (dose: 100.0 mg/kg/injection, schedule: Q01DX009 (ip), vehicle: saline); 0 of 6 under setting [2]; 2 of 6 and 4 of 6 under setting [3].
